Consider two molecules from paper PMC4316790.

Test [1] concerns the target NlpI-M (mature NlpI without signal peptide), C-terminal His-tagged, from pQE80-nlpI-M (E. coli) (UniProt P0AFB1). Description: co-purification with Western blot; NlpI-M expressed and purified in ΔibpA; co-eluted protein found by Western blot.
Test [2] has as its target T1, NlpI, full length, in pBT (bacterial two-hybrid bait) (E. coli) (UniProt P0AFB1).
T1 sequence: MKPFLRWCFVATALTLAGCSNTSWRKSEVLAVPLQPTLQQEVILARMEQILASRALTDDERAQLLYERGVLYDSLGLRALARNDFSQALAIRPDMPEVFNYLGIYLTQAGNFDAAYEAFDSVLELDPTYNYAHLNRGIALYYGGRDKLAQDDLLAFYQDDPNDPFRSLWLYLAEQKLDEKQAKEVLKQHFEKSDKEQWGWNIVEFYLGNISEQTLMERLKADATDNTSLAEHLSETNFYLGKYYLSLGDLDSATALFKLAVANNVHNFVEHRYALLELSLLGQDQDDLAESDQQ
Description: two-hybrid; BacterioMatch II bacterial two-hybrid; NlpI or NlpI-M in pBT, IbpB in pTRG; growth on dual selective screening medium (5 mM 3-AT, streptomycin).

Test [3] deals with NlpI-M (nlpI without N-terminal signal sequence) in pBT (bacterial two-hybrid bait) (E. coli) (UniProt P0AFB1). The test is described as above.

These are yes or no findings as the source states them, for the method shown. Some results given as binding are weak or reduced against the parent protein; the word gives no strength.

B1: Heat shock protein IbpB (protein, UniProt P0C058 1-142)
chain: MRNFDLSPLMRQWIGFDKLANALQNAGESQSFPPYNIEKSDDNHYRITLALAGFRQEDLEIQLEGTRLSVKGTPEQPKEEKKWLHQGLMNQPFSLSFTLAENMEVSGATFVNGLLHIDLIRNEPEPIAAQRIAISERPALNS
As for B1, the binding entry in test [1] is recorded as “binds”.

B2: IbpB in pTRG (bacterial two-hybrid target) (protein, UniProt P0C058 1-142)
chain: MRNFDLSPLMRQWIGFDKLANALQNAGESQSFPPYNIEKSDDNHYRITLALAGFRQEDLEIQLEGTRLSVKGTPEQPKEEKKWLHQGLMNQPFSLSFTLAENMEVSGATFVNGLLHIDLIRNEPEPIAAQRIAISERPALNS
B2: the binding entry in test [2] and in test [3] was “binds” each time.
